Assay results: article PMC12979858
Results are given in words; binding and its absence hold for the method and conditions named. In cells and extracts the contact can be indirect. Some entries that bind do so weakly or less than the wild type. For some of these results: Sequences can lack the tags named with a protein.

Sequences of proteins named here, by UniProt entry; tags and fusion partners are left off.
UniProt Q8CGF6: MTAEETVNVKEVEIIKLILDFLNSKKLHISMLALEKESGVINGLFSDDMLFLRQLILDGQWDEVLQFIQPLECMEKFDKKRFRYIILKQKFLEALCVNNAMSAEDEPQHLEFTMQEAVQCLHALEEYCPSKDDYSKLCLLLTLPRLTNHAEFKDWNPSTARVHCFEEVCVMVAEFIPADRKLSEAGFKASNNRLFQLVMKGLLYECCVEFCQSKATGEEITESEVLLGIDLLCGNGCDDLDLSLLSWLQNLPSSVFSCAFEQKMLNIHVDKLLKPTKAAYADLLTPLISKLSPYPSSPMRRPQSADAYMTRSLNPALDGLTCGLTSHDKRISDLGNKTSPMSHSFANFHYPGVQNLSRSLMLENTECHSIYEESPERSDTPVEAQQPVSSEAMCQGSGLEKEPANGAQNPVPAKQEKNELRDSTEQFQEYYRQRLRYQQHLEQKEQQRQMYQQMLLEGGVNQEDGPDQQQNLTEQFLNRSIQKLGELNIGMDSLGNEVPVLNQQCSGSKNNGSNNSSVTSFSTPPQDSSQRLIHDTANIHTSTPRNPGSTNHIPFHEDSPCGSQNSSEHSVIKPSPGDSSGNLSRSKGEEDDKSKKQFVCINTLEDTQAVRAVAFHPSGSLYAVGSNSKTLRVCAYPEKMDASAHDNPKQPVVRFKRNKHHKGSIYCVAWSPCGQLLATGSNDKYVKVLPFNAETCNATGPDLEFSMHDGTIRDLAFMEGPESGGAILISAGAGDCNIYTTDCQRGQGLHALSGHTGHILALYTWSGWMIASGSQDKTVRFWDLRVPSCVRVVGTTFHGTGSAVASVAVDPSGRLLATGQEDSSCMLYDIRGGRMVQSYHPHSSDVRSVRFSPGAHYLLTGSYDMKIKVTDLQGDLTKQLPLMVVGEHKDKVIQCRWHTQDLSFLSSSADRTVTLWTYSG

What was measured:
Test in all cases: co-IP; HEK293T cells exogenously expressing the tagged proteins; high-salt lysis buffer (1% NP-40, 500 mM NaCl, 50 mM HEPES pH 7.8, 5 mM EDTA); anti-GFP or anti-Flag agarose beads, 4 C, 4 h; immunoblot
[1] = target: T1, SPEF1 (tagged, expressed in HEK293T) (mouse) (UniProt Q99JL1)
T1 sequence: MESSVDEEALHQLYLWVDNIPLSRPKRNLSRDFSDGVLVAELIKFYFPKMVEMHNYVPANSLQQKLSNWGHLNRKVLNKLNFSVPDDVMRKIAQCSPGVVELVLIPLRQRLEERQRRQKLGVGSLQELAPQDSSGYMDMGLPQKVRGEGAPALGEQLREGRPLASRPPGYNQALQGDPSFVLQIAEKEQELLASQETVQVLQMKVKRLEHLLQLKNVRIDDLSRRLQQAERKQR

GFP-JHY (mouse) = GFP-JHY (mouse) (UniProt E9Q793)
[2] = target: T2, JHY first 150 residues (GFP-tagged fragment) (mouse) (UniProt E9Q793)
T2 sequence: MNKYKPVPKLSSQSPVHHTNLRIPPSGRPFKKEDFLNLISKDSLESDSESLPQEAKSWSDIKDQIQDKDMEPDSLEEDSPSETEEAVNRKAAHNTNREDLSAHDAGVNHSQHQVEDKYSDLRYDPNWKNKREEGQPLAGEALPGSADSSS

Substance	binding [1]	binding (GFP-JHY (mouse))	binding [2]
Flag-WDR47 (from UniProt Q8CGF6 1-920)	binds	binds	binds
GFP-JHY (from UniProt E9Q793 1-770)	binds	–	–
